Test results: the supplement of paper PMC10849652
Some of the results follow.

The chains behind the UniProt entries cited, without tags or fusion partners. Where a name states a change or a piece, a line headed by the entry shows the natural chain unless it says otherwise.
UniProt Q9H7Z7: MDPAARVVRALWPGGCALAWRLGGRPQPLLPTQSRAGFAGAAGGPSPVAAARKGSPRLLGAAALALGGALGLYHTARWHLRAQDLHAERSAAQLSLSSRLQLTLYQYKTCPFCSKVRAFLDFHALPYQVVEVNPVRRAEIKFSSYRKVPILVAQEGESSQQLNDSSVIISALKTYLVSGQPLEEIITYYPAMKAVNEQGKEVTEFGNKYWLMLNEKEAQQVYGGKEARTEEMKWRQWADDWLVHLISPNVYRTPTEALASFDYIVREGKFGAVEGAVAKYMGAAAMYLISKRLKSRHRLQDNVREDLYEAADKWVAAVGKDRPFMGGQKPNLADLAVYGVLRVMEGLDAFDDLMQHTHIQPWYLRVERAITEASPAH
UniProt Q9BT73: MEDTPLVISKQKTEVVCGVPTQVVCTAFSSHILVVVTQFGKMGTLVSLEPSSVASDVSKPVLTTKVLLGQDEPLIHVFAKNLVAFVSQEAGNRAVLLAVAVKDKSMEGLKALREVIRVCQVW
UniProt Q8TB72: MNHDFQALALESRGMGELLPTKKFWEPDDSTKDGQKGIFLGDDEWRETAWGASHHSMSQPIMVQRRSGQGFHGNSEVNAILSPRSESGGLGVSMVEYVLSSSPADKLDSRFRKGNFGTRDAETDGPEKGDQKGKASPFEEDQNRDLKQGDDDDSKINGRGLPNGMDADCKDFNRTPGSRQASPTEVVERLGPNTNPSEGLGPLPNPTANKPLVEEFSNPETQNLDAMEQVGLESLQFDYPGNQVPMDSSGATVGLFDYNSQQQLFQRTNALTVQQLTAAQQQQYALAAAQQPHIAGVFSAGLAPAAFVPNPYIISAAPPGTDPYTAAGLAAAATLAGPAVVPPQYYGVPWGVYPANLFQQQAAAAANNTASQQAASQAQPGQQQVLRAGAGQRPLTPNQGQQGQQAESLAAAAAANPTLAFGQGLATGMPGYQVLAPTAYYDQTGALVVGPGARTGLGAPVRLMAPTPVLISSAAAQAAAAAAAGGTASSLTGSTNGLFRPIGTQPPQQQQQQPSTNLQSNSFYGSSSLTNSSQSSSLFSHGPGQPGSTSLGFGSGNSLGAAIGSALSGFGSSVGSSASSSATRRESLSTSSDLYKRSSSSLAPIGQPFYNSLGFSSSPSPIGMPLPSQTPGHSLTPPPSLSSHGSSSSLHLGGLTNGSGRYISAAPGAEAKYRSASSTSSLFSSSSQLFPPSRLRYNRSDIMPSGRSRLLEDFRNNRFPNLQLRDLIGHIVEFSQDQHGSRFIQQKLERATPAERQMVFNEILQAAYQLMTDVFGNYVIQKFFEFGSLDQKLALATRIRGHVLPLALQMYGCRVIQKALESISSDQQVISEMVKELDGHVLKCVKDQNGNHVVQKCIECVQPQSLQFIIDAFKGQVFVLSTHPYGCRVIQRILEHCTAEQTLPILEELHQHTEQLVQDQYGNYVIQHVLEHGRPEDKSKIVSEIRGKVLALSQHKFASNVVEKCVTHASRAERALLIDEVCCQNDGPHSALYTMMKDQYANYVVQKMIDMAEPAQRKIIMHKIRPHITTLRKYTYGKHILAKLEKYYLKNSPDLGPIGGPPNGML
UniProt P20742, whole entry, looked up: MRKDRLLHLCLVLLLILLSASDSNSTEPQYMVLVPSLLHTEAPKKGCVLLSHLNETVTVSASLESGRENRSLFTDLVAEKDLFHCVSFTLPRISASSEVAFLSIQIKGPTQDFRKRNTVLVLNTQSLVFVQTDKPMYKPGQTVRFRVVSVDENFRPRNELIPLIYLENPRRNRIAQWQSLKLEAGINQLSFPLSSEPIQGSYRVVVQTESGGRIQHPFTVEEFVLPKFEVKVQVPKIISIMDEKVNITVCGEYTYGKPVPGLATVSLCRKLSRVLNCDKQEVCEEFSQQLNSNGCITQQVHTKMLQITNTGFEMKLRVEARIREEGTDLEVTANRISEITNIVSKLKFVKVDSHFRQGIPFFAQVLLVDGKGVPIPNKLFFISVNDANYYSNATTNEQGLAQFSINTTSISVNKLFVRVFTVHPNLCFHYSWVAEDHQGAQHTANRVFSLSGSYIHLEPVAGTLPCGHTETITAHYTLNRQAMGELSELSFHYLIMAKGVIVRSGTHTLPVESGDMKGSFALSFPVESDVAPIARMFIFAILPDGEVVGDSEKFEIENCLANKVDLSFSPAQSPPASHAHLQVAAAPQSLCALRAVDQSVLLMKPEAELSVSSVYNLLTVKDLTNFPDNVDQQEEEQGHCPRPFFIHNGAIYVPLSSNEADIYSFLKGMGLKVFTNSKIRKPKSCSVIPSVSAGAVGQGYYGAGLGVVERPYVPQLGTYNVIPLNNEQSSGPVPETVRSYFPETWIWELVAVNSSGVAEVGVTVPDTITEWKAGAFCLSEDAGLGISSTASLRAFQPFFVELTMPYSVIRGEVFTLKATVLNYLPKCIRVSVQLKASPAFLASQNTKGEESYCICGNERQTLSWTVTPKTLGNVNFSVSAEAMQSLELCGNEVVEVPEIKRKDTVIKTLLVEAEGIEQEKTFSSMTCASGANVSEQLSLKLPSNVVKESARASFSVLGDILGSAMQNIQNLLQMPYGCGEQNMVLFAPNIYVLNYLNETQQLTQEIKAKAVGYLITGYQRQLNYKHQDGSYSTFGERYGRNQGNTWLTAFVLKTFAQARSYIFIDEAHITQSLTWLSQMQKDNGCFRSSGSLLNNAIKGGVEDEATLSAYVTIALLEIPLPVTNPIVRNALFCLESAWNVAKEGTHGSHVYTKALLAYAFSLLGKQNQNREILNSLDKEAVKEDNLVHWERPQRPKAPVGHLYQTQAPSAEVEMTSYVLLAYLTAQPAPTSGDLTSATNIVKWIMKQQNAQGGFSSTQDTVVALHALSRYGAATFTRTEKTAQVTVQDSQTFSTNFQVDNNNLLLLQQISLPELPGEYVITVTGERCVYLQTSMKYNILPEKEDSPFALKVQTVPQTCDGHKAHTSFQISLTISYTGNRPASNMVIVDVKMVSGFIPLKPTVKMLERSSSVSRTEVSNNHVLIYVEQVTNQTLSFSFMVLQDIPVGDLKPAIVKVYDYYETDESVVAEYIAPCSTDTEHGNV
UniProt Q8TBF2: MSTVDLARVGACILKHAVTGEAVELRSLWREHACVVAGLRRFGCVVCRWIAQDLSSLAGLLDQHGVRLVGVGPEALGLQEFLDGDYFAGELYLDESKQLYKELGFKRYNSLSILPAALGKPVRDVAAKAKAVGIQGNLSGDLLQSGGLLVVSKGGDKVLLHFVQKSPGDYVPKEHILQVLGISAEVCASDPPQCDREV
UniProt P25789: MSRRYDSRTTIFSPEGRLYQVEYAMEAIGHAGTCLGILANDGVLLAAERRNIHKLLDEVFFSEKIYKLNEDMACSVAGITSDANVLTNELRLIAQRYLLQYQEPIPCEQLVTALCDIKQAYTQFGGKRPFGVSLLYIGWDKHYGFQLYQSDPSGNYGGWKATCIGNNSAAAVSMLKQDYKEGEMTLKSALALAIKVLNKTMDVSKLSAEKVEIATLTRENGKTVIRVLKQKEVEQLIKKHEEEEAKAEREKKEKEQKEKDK
UniProt Q92932: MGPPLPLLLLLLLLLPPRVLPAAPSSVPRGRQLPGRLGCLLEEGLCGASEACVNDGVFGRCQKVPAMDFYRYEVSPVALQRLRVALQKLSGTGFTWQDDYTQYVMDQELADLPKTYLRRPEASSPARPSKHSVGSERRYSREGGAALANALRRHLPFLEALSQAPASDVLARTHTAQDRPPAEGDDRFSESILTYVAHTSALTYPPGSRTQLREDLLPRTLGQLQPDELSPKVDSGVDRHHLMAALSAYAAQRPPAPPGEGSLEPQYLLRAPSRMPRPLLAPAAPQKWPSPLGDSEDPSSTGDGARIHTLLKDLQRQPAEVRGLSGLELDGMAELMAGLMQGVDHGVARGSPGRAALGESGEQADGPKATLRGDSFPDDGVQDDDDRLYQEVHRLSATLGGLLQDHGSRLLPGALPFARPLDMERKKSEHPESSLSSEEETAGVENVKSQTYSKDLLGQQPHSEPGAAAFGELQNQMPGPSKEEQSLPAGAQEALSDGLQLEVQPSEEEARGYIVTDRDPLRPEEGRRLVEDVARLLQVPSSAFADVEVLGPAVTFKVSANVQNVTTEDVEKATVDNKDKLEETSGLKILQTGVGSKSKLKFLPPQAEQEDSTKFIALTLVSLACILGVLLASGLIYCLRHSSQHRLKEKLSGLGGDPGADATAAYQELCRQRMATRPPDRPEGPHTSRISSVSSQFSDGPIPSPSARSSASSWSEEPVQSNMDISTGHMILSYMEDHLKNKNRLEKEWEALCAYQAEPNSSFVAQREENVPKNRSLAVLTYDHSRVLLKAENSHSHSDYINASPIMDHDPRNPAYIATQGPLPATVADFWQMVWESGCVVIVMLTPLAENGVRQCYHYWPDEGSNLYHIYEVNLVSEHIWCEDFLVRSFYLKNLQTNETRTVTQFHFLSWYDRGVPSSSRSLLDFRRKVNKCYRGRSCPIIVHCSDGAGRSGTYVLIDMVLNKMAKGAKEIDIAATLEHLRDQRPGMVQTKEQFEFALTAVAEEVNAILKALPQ
UniProt P32322: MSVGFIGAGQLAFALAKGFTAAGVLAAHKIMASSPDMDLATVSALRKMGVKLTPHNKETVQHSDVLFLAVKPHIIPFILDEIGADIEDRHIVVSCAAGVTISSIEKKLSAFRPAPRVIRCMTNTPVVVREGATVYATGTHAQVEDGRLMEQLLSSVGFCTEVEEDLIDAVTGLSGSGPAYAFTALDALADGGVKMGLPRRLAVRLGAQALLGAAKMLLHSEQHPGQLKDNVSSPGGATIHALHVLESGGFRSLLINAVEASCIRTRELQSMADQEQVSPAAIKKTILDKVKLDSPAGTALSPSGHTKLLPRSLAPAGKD
UniProt O95456: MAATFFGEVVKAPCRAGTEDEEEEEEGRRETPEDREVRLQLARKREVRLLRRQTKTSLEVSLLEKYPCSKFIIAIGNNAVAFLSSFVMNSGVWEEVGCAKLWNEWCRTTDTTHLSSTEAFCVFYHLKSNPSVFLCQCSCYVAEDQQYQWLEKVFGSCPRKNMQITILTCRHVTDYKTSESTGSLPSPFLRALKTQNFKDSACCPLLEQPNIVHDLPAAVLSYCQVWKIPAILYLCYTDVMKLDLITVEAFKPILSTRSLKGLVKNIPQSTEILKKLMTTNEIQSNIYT
UniProt P20618: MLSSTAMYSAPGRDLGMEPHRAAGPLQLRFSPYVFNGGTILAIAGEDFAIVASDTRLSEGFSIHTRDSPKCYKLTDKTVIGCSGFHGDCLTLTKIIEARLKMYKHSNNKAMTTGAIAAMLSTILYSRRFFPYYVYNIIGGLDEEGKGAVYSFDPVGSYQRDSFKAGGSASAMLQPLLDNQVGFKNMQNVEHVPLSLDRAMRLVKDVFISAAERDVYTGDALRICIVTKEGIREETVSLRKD
UniProt P60900, whole entry, looked up: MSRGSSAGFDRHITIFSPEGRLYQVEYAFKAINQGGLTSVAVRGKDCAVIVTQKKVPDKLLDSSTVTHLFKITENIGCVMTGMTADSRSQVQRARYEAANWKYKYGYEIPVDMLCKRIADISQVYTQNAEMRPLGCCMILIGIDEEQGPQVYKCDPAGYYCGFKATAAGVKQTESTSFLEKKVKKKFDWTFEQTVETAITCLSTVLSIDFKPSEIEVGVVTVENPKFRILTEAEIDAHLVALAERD
UniProt O00391: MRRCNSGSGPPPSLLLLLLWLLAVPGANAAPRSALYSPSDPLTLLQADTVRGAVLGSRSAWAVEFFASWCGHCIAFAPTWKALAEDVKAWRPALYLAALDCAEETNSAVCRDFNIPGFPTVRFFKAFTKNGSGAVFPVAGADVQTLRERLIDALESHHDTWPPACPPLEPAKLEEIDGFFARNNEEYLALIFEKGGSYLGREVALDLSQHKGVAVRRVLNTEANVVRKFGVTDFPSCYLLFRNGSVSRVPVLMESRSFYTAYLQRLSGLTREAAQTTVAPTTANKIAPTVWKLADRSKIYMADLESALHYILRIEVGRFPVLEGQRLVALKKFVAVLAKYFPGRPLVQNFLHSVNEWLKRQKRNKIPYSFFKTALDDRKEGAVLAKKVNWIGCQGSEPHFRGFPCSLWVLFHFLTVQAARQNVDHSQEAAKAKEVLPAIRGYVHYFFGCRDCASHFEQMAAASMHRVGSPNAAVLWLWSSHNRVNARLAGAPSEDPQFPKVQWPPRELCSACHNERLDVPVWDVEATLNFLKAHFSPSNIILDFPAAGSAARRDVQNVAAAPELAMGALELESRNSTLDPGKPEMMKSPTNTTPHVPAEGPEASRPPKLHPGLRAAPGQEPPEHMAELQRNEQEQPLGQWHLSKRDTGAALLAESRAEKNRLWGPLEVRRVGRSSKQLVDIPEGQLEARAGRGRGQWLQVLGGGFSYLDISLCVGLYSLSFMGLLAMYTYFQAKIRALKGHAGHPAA
UniProt P49720: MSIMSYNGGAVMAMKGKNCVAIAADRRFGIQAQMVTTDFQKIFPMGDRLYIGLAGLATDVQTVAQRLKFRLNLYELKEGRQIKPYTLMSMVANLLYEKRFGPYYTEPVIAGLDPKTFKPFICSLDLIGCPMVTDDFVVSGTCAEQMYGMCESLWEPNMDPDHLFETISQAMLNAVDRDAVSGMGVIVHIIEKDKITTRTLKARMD

Compound: c1cn2cc(-c3ccc4cn[nH]c4c3)nc(Nc3ccc(N4CCOCC4)cc3)c2n1 [entospletinib]
Assay: log2 fold change, soluble protein after heating vs DMSO (PISA); higher = thermal stabilisation; K562 cells, 10 uM, 30 min; active = over 0.2 and 3.5 SD of the protein, either way, in both replicates (recomputed)
Outline: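 Quantification of soluble protein used TMTpro 16plex LC-MS/MS, with channel sums equalised. Samples were the supernatant after 21,000xg for 90 min of pooled aliquots from K562 cells (2×10^6 cells/mL) treated with 10 μM compound for 30 min, heated for 3 min over 48°C-58°C, and extracted in PBS with 0.5% NP-40 at 4°C. Values, from duplicates, describe thermal stability against control samples on a log2 fold-change scale.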

log2 fold change, inactive:
PYCR3 (UniProt Q53H96) -0.008, PRUNE2 isoform 3 (UniProt Q8WUY3) 0.24, PTGES2 (UniProt Q9H7Z7) 0.023, PSMG3 (UniProt Q9BT73) 0.008, QTRT2 isoform 4 (UniProt Q9H974) 0.019, PSMA7 isoform 2 (UniProt O14818) 0.114, PSMG2 (UniProt Q969U7) -0.021, PUM2 (UniProt Q8TB72) 0.05, PWP2 (UniProt Q15269) 0.044, PZP (UniProt P20742) 0.199, PRXL2B isoform 3 (UniProt Q8TBF2) -0.058, PSMA4 (UniProt P25789) 0.015, PTPRN2 isoform 3 (UniProt Q92932) -0.472, PYCR1 isoform 3 (UniProt P32322) 0.033, PSMB5 (UniProt P28074) -0.025, PTPRC (UniProt P08575) -0.005, PSD4 (UniProt Q8NDX1) 0.128, PSMG1 (UniProt O95456) -0.041, PSMB1 (UniProt P20618) 0.022, PSMA6 (UniProt P60900) -0.011, QSOX1 (UniProt O00391) 0.044, PSMB3 (UniProt P49720) 0.017
